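Primary screen of methionyl-tRNA synthetase; the read-out is not stated. Target: Methionyl-tRNA synthetase (putative), Leishmania donovani (UniProt E9BF75). The test concentration is not given. The values are filed as inhibition. Of about 68,000 compounds tested this way, about 24 (0.035%) reached 50% or more in at least one test.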

Sequences of proteins named here, by UniProt entry; tags and fusion partners are left off.
UniProt E9BF75, entry or part of it: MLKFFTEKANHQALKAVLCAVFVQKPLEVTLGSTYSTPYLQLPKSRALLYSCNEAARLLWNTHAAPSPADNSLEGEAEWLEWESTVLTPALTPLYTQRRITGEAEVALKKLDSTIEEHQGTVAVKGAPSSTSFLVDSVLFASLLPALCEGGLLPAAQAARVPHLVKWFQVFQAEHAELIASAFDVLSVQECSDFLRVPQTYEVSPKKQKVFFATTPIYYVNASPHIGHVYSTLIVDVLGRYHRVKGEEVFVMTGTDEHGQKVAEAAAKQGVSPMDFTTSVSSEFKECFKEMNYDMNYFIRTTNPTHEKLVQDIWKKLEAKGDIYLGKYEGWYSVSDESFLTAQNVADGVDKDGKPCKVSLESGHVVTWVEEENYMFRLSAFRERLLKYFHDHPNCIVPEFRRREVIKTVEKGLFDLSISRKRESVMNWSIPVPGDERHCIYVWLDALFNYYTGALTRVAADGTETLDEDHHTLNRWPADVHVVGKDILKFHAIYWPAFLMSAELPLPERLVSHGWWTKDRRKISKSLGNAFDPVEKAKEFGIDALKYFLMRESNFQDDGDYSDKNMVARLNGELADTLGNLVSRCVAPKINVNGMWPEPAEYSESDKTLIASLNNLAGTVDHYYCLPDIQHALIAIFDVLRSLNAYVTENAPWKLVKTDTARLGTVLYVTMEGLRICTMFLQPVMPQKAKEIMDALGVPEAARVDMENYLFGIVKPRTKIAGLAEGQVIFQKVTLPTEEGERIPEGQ

Results are percentages, as filed.
The record does not define 0% and 100%; most values in the screen are far below 50% and negative numbers occur (in some assays of this library far below -100).
This is an unselected part of the compounds tested.

| # | SMILES | inhibition |
|---|---|---|
| 1 | `CC(C)(C)n1cc(C(=O)N2CCN(Cc3cccnc3)CC2)cn1` | 20.22 |
| 2 | `Cc1ccc(S(=O)(=O)n2ccn(C(=O)COc3ccccc3)c2=O)cc1` | 9.329 |
| 3 | `O=C(NC1CC1)N1Cc2[nH]nc(COc3cccnc3)c2C1` | 9.929 |
| 4 | `CNC(=O)Cc1ccc(NC(=O)NC2(c3cccc(F)c3)CC2)cc1` | 14.56 |
| 5 | `O=C(COc1cccc(F)c1)N1CCCCC1c1ccn2ccnc2n1` (centres undefined) | 9.605 |
| 6 | `O=C(c1ccc(Cl)o1)N1CCCN(Cc2cscn2)CC1` | 17.36 |
| 7 | `CNc1ncc(CN(C)C(=O)c2cccc(-n3cccn3)c2)cn1` | 20.62 |
| 8 | `CCc1ncc2c(n1)CN(C(=O)CC(C)NC(C)=O)C2` (centres undefined) | 17.09 |
| 9 | `CC(=O)N1CCC(CCNC(C)Cc2ccc(F)cc2)CC1` (centres undefined) | 7.258 |
| 10 | `C[S+]([O-])CCNC(=O)N1CCSC2(CCCCC2)C1` (centres undefined) | 9.747 |
| 11 | `O=C(NCC1CC1)C1CN(C(=O)c2cnccn2)CC12CCOCC2` (centres undefined) | 7.801 |
| 12 | `CNC(=O)CCS(=O)(=O)Cc1coc(-c2ccc(F)cc2)n1` | 7.107 |
| 13 | `CNC(=O)[C@@H]1CC[C@@H]2[C@@H](CCN2Cc2cn(C)c3ccccc23)O1` | 13.14 |
| 14 | `CN1CCC2(CCN(C(=O)c3cccnc3)C2)C1` (centres undefined) | 10.34 |
| 15 | `O=C(O)C1c2nc[nH]c2CCN1Cc1ccccc1-c1ccccc1` (centres undefined) | 22.19 |
| 16 | `Cc1ccc(C2(O)CCN(Cc3nnc(-c4cccnc4)o3)CC2)nc1` | 12.32 |
| 17 | `Cn1nccc1-c1ccc2nc(C3CCN(CC4CC4)CC3)nn2c1` | 12.88 |
| 18 | `CN(Cc1ccc2c(c1)OCCO2)c1ncc(S(N)(=O)=O)s1` | 20.24 |
| 19 | `Cn1cnc2c1C(COCC1CC1)CN(C(=O)Cc1ccsc1)C2` (centres undefined) | 9.804 |
| 20 | `CCNC(=O)N1CCCCC1CCO` (centres undefined) | 1.812 |
| 21 | `Cc1nc(-c2cccc(N3CCC(NC4CCOCC4)CC3)c2)cs1` | 12.24 |
| 22 | `CCOCC(=O)Nc1cccnc1-n1ccnc1C` | 15.59 |
| 23 | `c1cncc(CN2CCc3ncnc(C4CC4)c3CC2)c1` | 4.11 |
| 24 | `CCc1ccccc1CN1CCC(N2CCCC2=O)CC1` | 15.25 |
| 25 | `COc1ccc(C2CCCN2C(=O)c2cc(C(C)C)on2)cc1` (centres undefined) | 10.08 |
| 26 | `c1ccc(-c2noc(C3CCN(CCCn4cncn4)CC3)n2)cc1` | 0.2564 |
| 27 | `Cc1nc(COC[C@@H]2CC[C@H]3[C@H](CCN3c3ccccn3)O2)cs1` | 19.76 |
| 28 | `O=C(Nc1ccc(-n2ccnc2)c(F)c1)C1CCN(C(=O)C2CC2)CC1` | 5.797 |
| 29 | `O=C(C1CCC1)N1CCC(C(=O)N2CCC(c3ccc(F)cc3)C2)CC1` (centres undefined) | 1.72 |
| 30 | `NC(=O)CN1CCN(CC2CC2)c2ccccc21` | 22.45 |
| 31 | `COc1c(C)cnc(CN2CCCC2c2noc(C3CC3)n2)c1C` (centres undefined) | 5.866 |
| 32 | `Cc1nonc1N1CCN(Cc2nc(CC3CC3)no2)CC1` | 9.524 |
| 33 | `COc1ccc(Nc2ncccc2C#N)cc1N1CCCC1=O` | 7.652 |
| 34 | `O=C(c1ccncc1F)N1CCc2ncnc(-c3ccncc3)c2CC1` | 10.44 |
| 35 | `Cc1ccc2cc(C(=O)N3CCN(C(=O)N(C)C)CC3)ccc2n1` | 7.949 |
| 36 | `Cn1nccc1C1CCN(CC(O)c2cccc(F)c2)CC1` (centres undefined) | 3.286 |
| 37 | `Cc1nnc(C2Cc3ccccc3CN2Cc2ncc(C(C)(C)C)o2)o1` (centres undefined) | -0.6944 |
| 38 | `O=C(CCc1nc(Cl)n[nH]1)N1CCC2(CCCN(CC3CCC3)C2=O)C1` (centres undefined) | 11 |
| 39 | `Cc1cc(-c2cnc(N3CCSCC3)nc2-c2ccc(C)s2)on1` | 6.824 |
| 40 | `O=C(CC1CC1)N1Cc2nccn2CC(COc2cccnc2)C1` (centres undefined) | 10.14 |
| 41 | `COCC(=O)N1CCC2(CC(C(=O)NCc3cccnc3)=NO2)C1` (centres undefined) | 11.85 |
| 42 | `Cc1nccc(-c2cccc(NCC(=O)N3CCCC(C)C3)c2)n1` (centres undefined) | 17.71 |
| 43 | `COc1ccc(CNC(=O)N2CCOCC2C2CC2)cc1C` (centres undefined) | -5.301 |
| 44 | `CCc1nc(C2CCCN2Cc2nnc(Cc3ccccc3)o2)no1` (centres undefined) | 9.028 |
| 45 | `N#CC1(C(=O)N2C[C@H]3CC[C@@H]2CN(Cc2cscn2)C3)CCOCC1` | 3.364 |
| 46 | `O=C(NC1CCCC1)O[C@H]1COCCN(c2nc3ccccc3s2)C1` | 12.09 |
| 47 | `CC(C)(C)n1nc(C(=O)NCC2(C(N)=O)CCOCC2)cc1C1CC1` | 11.81 |
| 48 | `Cc1cccc(-c2nc(N)nc3c2CN(C(=O)C2CCCC2)C3C)c1` (centres undefined) | 9.651 |
| 49 | `c1cncc(-c2ccnn2CN2CCC3(CC2)OCCO3)c1` | 12.33 |
| 50 | `CC(C)CN1CCCC2(CCN(C(=O)c3cnccn3)C2)C1` (centres undefined) | 7.843 |
| 51 | `O=c1[nH]c2c(c(=O)n1C1CCCCC1)CCC2NCc1ccccc1` (centres undefined) | 6.364 |
| 52 | `CN(Cc1ccncc1)C1CCC[C@@H]2CN(c3ncccn3)C[C@H]12` (some centres undefined) | 12.8 |
| 53 | `CCN1C(=O)[C@H]2CN(CC(C)C)C[C@H]2C12CCN(S(C)(=O)=O)CC2` | 9.929 |
| 54 | `COc1c(C2CCCN2Cc2nnc(C3CC3)n2C)c(C)nn1C` (centres undefined) | 2.93 |
| 55 | `Cc1ccccc1OCCSc1nnc(CC2CCS(=O)(=O)C2)n1C` (centres undefined) | 11.39 |
| 56 | `O=C(NCCOc1ccc2c(c1)OCO2)C1CC(=O)N(C2CC2)C1` (centres undefined) | 11.45 |
| 57 | `Cc1ccc(C(=O)N2CCCCC2CNC(N)=O)s1` (centres undefined) | 11.28 |
| 58 | `COc1cc(C)cc(C(C(=O)O)N(C)CCN2CCCC2)c1OC` (centres undefined) | 19.23 |
| 59 | `Cc1cc(CN2CCCCC2Cn2cncn2)no1` (centres undefined) | 19.47 |
| 60 | `CC(c1cc(O)nc(NC2CCCC2)n1)n1ncc2ccccc2c1=O` (centres undefined) | 12.46 |
| 61 | `Cc1cc(NC(=O)CN2CCCCC2Cn2nc(C)nc2C)on1` (centres undefined) | 21.14 |
| 62 | `Cc1nc2cc(=O)[nH]n2c(C)c1CC(=O)NCc1ccc(C#N)cc1` | 20.53 |
| 63 | `O=c1c2ccccc2cnn1Cc1cncn1C1CC1` | 11.75 |
| 64 | `Cc1ccc(Nc2nccc(C3CCCN(CC(=O)N(C)C)C3)n2)nc1` (centres undefined) | 17.07 |
| 65 | `CCc1ccccc1C(=O)N1CCN(S(C)(=O)=O)[C@@H](C)C1` | 5.419 |
| 66 | `COCc1nc(C(=O)NS(=O)(=O)c2ccc(F)c(F)c2)cs1` | 8.591 |
| 67 | `CCC(C)NC(=O)CS(=O)(=O)Cc1nc(-c2cccs2)no1` (centres undefined) | 7.986 |
| 68 | `Cc1cnn(CC2CCCN2Cc2nnc(C(C)C)o2)c1` (centres undefined) | 7.222 |
| 69 | `N#Cc1cccnc1NCCNC(=O)N1CCCC(C(F)(F)F)C1` (centres undefined) | 10.51 |
| 70 | `Cc1cnn(C2CCCN(C(=O)c3ccnc(-n4ccnc4)c3)C2)c1` (centres undefined) | 20.14 |
| 71 | `Cc1ccc(CNC(CN2CCN(C)CC2)c2ccccc2)cc1` (centres undefined) | 15.99 |
| 72 | `CCc1nc(CN2CCCC(NCc3ncc(C(C)(C)C)o3)C2)no1` (centres undefined) | 13.19 |
| 73 | `COCCn1c(=O)n(C)c(=O)c2ccc(C3CCC(CN)CC3)nc21` (centres undefined) | 10.31 |
| 74 | `Cc1cncc(CN2C[C@@H](O)[C@H](Oc3ccccc3)C2)c1` | 7.91 |
| 75 | `CS(=O)(=O)NCCCn1ccc2ccccc21` | 3.106 |
| 76 | `CN(C)C(=O)Cc1ccccc1NCc1cc(C#N)ccc1F` | 8.075 |
| 77 | `CN(C)c1cc(CC(NC(=O)C2CC2)c2ccccc2)nc(C2CC2)n1` (centres undefined) | 11.01 |
| 78 | `O=C(c1ccno1)N1CC(c2nc(-c3ccco3)no2)C1` | 10.56 |
| 79 | `Cc1nc(NC(=O)c2c(-n3cnnn3)sc(C)c2C)sc1C` | 21.2 |
| 80 | `CCN(Cc1cnn(C)c1)C[C@H]1CC[C@@H](Cc2ccc(OC)nc2)O1` | 9.561 |
| 81 | `CCN(C(=O)c1nc2c(s1)CCCN2C(C)=O)C(C)C` | 7.692 |
| 82 | `Cc1ccc(C)c(NC(=O)N2C[C@H](N(C)C)C[C@H]2CO)c1` | 17.35 |
| 83 | `COc1cccc(N2CCN(CCC(=O)NC3CCCCC3)CC2)c1` | 5.077 |
| 84 | `CCOC1(C)C(=O)c2ccccc2N1Nc1ccccc1C(=O)CC` (centres undefined) | 15.86 |
| 85 | `COCCC1(CO)CCCN(C(=O)c2cccnc2O)C1` (centres undefined) | 10.63 |

11 of the entries, repeated:

| SMILES | inhibition |
|---|---|
| `CCN(Cc1cnn(C)c1)C[C@H]1CC[C@@H](Cc2ccc(OC)nc2)O1` | 9.561 |
| `C[S+]([O-])CCNC(=O)N1CCSC2(CCCCC2)C1` (centres undefined) | 9.747 |
| `N#Cc1cccnc1NCCNC(=O)N1CCCC(C(F)(F)F)C1` (centres undefined) | 10.51 |
| `Cc1ccc2cc(C(=O)N3CCN(C(=O)N(C)C)CC3)ccc2n1` | 7.949 |
| `COc1ccc(Nc2ncccc2C#N)cc1N1CCCC1=O` | 7.652 |
| `N#CC1(C(=O)N2C[C@H]3CC[C@@H]2CN(Cc2cscn2)C3)CCOCC1` | 3.364 |
| `CCc1ccccc1CN1CCC(N2CCCC2=O)CC1` | 15.25 |
| `Cc1cnn(C2CCCN(C(=O)c3ccnc(-n4ccnc4)c3)C2)c1` (centres undefined) | 20.14 |
| `COc1ccc(C2CCCN2C(=O)c2cc(C(C)C)on2)cc1` (centres undefined) | 10.08 |
| `O=C(c1ccc(Cl)o1)N1CCCN(Cc2cscn2)CC1` | 17.36 |
| `O=c1[nH]c2c(c(=O)n1C1CCCCC1)CCC2NCc1ccccc1` (centres undefined) | 6.364 |

Data taken from ChEMBL document CHEMBL3988442, “University of Dundee, Small-Polar-MMV Screening Library” (2021).